Data published in PMC9636212.
These are yes or no findings as the source states them, for the method shown. In cells and extracts the contact can be indirect. Some binding calls cover weakened binding; strength is not graded here.

The chains behind the UniProt entries cited, without tags or fusion partners.
UniProt Q01147: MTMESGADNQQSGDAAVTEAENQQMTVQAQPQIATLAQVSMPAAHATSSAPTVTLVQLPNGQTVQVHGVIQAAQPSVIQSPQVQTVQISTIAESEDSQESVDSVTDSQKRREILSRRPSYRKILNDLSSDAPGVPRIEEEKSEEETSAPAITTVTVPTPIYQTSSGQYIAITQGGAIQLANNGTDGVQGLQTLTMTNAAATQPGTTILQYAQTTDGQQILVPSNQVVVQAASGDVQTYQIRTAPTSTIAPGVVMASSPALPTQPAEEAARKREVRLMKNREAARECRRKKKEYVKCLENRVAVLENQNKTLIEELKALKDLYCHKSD
UniProt P45481: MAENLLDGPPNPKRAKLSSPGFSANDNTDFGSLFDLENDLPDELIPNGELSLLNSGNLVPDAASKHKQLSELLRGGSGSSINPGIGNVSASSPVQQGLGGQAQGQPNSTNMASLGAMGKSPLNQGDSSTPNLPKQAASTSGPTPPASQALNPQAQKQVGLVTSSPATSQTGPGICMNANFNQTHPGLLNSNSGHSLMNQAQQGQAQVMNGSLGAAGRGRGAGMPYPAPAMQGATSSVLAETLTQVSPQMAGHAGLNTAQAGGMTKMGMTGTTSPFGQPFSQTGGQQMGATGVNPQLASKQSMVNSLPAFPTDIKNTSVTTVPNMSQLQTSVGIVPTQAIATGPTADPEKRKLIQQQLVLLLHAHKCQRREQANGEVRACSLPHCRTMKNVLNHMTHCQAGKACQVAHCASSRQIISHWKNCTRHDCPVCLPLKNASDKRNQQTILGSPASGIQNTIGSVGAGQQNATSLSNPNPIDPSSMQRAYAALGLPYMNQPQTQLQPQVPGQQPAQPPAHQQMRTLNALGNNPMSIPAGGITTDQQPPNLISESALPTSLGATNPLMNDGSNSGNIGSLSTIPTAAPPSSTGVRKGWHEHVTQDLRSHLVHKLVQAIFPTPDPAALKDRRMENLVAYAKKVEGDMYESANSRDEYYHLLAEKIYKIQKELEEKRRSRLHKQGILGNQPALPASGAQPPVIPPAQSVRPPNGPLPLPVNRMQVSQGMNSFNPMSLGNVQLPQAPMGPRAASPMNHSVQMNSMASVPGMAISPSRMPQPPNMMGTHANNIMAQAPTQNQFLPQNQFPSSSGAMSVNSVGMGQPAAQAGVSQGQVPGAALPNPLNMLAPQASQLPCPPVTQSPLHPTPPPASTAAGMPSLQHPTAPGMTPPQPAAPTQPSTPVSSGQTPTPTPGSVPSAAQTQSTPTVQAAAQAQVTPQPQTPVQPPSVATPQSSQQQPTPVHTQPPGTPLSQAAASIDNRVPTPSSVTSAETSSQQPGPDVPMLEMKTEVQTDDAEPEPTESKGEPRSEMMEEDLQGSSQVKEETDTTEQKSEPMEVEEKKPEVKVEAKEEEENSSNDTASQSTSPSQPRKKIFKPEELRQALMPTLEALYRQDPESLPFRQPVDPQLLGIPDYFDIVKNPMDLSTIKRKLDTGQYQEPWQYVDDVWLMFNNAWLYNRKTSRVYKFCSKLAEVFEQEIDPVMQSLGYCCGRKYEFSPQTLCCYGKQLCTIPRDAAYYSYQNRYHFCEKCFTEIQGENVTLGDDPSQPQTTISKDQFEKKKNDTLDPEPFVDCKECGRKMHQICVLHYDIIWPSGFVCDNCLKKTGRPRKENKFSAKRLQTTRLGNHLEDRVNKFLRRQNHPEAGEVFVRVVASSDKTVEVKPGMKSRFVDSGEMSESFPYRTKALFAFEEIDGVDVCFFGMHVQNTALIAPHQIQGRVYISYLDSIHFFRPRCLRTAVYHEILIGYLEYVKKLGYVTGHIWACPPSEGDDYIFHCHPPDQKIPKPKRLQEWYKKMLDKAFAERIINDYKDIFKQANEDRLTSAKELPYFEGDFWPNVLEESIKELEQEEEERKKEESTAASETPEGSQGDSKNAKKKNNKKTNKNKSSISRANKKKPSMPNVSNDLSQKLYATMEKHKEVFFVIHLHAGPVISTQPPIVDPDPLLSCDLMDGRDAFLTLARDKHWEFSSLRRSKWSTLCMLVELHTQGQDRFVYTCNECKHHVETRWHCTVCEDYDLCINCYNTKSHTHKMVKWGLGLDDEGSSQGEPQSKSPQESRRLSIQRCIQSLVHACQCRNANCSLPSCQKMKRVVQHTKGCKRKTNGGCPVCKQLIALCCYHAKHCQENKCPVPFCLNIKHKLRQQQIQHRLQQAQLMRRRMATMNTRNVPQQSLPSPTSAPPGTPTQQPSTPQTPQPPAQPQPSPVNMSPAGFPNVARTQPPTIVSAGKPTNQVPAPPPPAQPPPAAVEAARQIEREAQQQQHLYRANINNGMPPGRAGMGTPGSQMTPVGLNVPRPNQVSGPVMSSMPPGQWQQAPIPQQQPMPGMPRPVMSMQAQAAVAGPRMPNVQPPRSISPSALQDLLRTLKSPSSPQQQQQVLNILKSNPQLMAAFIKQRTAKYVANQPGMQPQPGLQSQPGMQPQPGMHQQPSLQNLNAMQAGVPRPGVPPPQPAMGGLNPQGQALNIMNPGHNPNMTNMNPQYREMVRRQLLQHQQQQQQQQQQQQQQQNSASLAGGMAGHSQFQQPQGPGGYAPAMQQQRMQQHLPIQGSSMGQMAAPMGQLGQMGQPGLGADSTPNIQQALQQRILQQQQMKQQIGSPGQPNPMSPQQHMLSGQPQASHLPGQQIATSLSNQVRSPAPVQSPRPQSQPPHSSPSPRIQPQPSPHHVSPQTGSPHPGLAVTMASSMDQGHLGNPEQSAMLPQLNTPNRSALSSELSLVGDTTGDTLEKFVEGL
UniProt P42227: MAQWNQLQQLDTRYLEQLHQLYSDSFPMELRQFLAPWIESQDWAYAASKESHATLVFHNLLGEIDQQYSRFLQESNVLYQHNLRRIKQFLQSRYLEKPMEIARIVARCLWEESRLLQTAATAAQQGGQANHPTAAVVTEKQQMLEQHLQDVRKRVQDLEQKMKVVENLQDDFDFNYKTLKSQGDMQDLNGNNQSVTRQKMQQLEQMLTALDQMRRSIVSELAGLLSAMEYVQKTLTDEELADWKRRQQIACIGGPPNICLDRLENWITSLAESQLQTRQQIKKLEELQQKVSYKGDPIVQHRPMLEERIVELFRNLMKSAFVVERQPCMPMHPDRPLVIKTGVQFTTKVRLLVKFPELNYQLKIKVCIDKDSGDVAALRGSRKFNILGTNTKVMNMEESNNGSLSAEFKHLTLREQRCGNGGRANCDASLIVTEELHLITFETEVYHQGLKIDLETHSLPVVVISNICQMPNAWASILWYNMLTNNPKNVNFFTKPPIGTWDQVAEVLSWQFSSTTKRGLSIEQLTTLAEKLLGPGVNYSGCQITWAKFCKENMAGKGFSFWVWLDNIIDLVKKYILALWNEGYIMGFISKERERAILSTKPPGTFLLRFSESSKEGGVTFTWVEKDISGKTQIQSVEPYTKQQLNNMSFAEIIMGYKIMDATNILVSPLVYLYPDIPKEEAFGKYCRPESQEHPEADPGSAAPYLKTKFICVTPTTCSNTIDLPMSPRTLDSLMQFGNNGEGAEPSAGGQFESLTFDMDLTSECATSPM

Experiments:
Assay in all cases: co-IP; endogenous proteins in NP-40 lysates of Ocy, 48 h after Pam3CSK4 or PBS stimulation; 300 µg total protein with 1 µg anti-CREB, anti-CBP or anti-STAT3 antibody at 4 °C overnight, protein A/G-Plus-Agarose, three washes with lysis buffer, Western blotting for FBXL19 or PDLIM2; Pam3CSK4 decreased the complex formation
[1] = biological target: cAMP responsive element binding protein (mouse (endogenous in osteocyte-enriched calvarial cells)) (UniProt Q01147)
[2] = biological target: CREB binding protein (mouse (endogenous in osteocyte-enriched calvarial cells)) (UniProt P45481)
[3] = biological target: signal transducer and activator of transcription 3 (mouse (endogenous in osteocyte-enriched calvarial cells)) (UniProt P42227)

B1: F-box and leucine-rich repeat protein 19 (protein, UniProt Q6PB97 1-674)
chain: MSSSSRGPGAGARRRRTRCRRCRACVRTECGDCHFCRDMKKFGGPGRMKQSCLLRQCTAPVLPHTAVCLLCGEAGKEDTVEGEDEKFSLSLMECTICNEIVHPGCLKMGKAEGVINSEIPNCWECPRCTQEGRTSKDAGEGPGRRRADNGEEGANLGGGWKLTEEPPPPPPLPRRKGPLPAGPTPDDVPGPPKRKEREGGNEPPTPRKKVKGGRERHLKKVGGDACLLRGADPGSPGLLPPRVLNPSQAFSSCHPGLPPENWEKPKPPIASAEGPAVPSPSPQREKLERFKRMCQLLERVPDTSSSSSDSDSDSDSSGTSLSEDEAPGEARNGRRPARGSSGEKENRGGRRAIRPGTGGPLLSWPLGPAPPPRPPQLERHVVRPPPRSPEPDTLPLAAGSDHPLPRAAWLRVFQHLGPRELCVCMRVCRTWSRWCYDKRLWPRMDLSRRKSLTPPMLSGVVRRQPRALDLSWTGVSKKQLMWLLNRLQGLQELVLSGCSWLSVSALGSAPLPALRLLDLRWIEDVKDSQLRELLLPPPDTKPGQTESRGRLQGVAELRLAGLELTDASLRLLLRHAPQLSALDLSHCAHVGDPSVHLLTAPTSPLRETLVHLNLAGCHRLTDHCLPLFRRCPRLRRLDLRSCRQLSPEACARLAAAGPPGPFRCPEEKLLLKDS
With B1 the binding [1] was “binds” and the binding [2] was “binds”.

B2: PDZ and LIM domain 2 (protein, UniProt Q8R1G6 1-349)
chain: MALTVDVAGPAPWGFRISGGRDFHTPIIVTKVTERGKAEAADLRPGDIIVAINGQSAENMLHAEAQSKIRQSASPLRLQLDRSQTASPGQTNGEGSLEVLATRFQGSLRTHRDSQSSQRSACFSPVSLSPRPCSPFSTPPPTSPVALSKEDMIGCSFQSLTHSPGLAAAHHLTYPGHPTSQQAGHSSPSDSAVRVLLHSPGRPSSPRFSSLDLEEDSEVFKMLQENRQGRAAPRQSSSFRLLQEALEAEERGGTPAFVPSSLSSQASLPTSRALATPPKLHTCEKCSVNISNQAVRIQEGRYRHPGCYTCADCGLNLKMRGHFWVGNELYCEKHARQRYSMPGTLNSRA
With B2 the binding [3] was “binds”.
